No constants are given. Whether binding was seen depends on the method and setting. In cells and extracts the contact can be indirect. Some results given as binding are weak or reduced against the parent protein; the word gives no strength.
Target: Telomeric repeat-binding factor 2 (TRF2), endogenous (human (endogenous in 293T)) (UniProt Q15554)
Assay: co-IP; endogenous proteins of a 293T cell lysate; IP with anti-NOLC1 or anti-TRF2 antibody; blots with anti-NOLC1 and anti-TRF2; 50 mM Tris-HCl pH 7.4, 150 mM NaCl, 1 mM EDTA, 1 mM DTT, 0.3% NP40; 4 °C

Amino acid sequences for entries named in this document (tags omitted).
UniProt Q15554: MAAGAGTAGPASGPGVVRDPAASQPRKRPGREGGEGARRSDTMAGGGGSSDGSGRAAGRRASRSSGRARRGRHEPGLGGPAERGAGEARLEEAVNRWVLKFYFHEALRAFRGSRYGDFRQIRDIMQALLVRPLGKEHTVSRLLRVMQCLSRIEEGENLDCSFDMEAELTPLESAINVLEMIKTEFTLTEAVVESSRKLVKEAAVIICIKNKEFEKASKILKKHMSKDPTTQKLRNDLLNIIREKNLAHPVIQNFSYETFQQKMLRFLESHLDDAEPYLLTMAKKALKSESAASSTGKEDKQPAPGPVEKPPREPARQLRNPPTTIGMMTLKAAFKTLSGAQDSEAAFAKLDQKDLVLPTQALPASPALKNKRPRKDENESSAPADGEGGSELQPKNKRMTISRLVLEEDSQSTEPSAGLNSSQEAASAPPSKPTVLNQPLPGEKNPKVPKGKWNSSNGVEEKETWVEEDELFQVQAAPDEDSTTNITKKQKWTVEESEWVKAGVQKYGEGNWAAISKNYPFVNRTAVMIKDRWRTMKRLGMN

binding: binds
B1: Nucleolar and coiled-body phosphoprotein 1 (NOLC1), endogenous (protein, UniProt Q14978 1-699)
chain: MADAGIRRVVPSDLYPLVLGFLRDNQLSEVANKFAKATGATQQDANASSLLDIYSFWLKSAKVPERKLQANGPVAKKAKKKASSSDSEDSSEEEEEVQGPPAKKAAVPAKRVGLPPGKAAAKASESSSSEESSDDDDEEDQKKQPVQKGVKPQAKAAKAPPKKAKSSDSDSDSSSEDEPPKNQKPKITPVTVKAQTKAPPKPARAAPKIANGKAASSSSSSSSSSSSDDSEEEKAAATPKKTVPKKQVVAKAPVKAATTPTRKSSSSEDSSSDEEEEQKKPMKNKPGPYSSVPPPSAPPPKKSLGTQPPKKAVEKQQPVESSEDSSDESDSSSEEEKKPPTKAVVSKATTKPPPAKKAAESSSDSSDSDSSEDDEAPSKPAGTTKNSSNKPAVTTKSPAVKPAAAPKQPVGGGQKLLTRKADSSSSEEESSSSEEEKTKKMVATTKPKATAKAALSLPAKQAPQGSRDSSSDSDSSSSEEEEEKTSKSAVKKKPQKVAGGAAPSKPASAKKGKAESSNSSSSDDSSEEEEEKLKGKGSPRPQAPKANGTSALTAQNGKAAKNSEEEEEEKKKAAVVVSKSGSLKKRKQNEAAKEAETPQAKKIKLQTPNTFPKRKKGEKRASSPFRRVREEEIEVDSRVADNSFDAKRGAAGDWGERANQVLKFTKGKSFRHEKTKKKRGSYRGGSISVQVNSIKFDSE

— article PMC5582526
